# Test results as given in patent US20200405809A1, “COMBINATION OF A CYCLIN DEPENDENT KINASE INHIBITOR AND A BET- BROMODOMAIN INHIBITOR” (Pfizer Inc., priority 2018, published 2020).
# System: T47D breast cancer multicellular tumor spheroids
# Assay: In vitro screen in T47D breast cancer multicellular tumor spheroids, BET inhibitor plus palbociclib
# Assay type: cell-based
# Details: BET inhibitor (30, 300, 3000 nM) in combination with 25 nM palbociclib; from AUC of spheroid growth curves (Chalice Analyzer)
# Description: T47D multicellular tumor spheroids were grown in a low-adhesion 96-well plate for use in screening. […] Two hundred T47D cells were seeded per well of 96-well ultralow attachment plates (ULA-96U, Thermo Fisher). Cells were grown for 4 days to allow spheroid formation, followed by initiation of compound treatment as indicated (day 0). […] The medium was replaced every 3 days. Spheroid average diameter was quantified every 3 days (Celigo 200-BFFL-S, Nexcelcom) and spheroid growth curves were obtained. The area-under-curve (AUC) was quantified and used to calculate synergy scores for BET inhibitors in combination with palbociclib (Chalice Analyzer, Horizon Discovery).
smiles,measurement,value
"CCNC(=O)C[C@@H]1N=C(c2ccc(Cl)cc2)c2cc(OC)ccc2-n2c(C)nnc21 [B3, IBET-762 (GSK525762)]",Synergy score,0.99
